Measured values reported in doi:10.64898/2025.12.21.695507.

Biological target: Rhoptry Serine Hydrolase (RhoSH, PBANKA_1001500) (P. berghei)
Test: affinity purification with mass spectrometry

Question: With “PBANKA_1312200, a putative ubiquitin-protein ligase (from UniProt A0A509AS13)” as the substance, how does the binding read?
Answer: The binding was “binds”.

No constants are given. Whether binding was seen depends on the method and setting. Binding seen in cells or lysates may run through a third protein. Here binding means that the protein was enriched with, or labelled near, the bait; the list need not be complete.
